Patent publication US9271957B2, “Methods of treating or preventing degenerative joint conditions, osteoarthritis, cartilage damage, and related disorders in companion animals” (HILL'S PET NUTRITION, INC., priority 2008, dated 2016)

System: genes related to cartilage and energy metabolism
Assay: Differential gene expression profile, whole blood RNA on canine 2 Affymetrix genechips
Type: in vivo, dogs
Settings: for Number of genes with altered expression: minimum 1.3 fold change, d 30
Source text: A differential gene expression profile was studied between an AAFCO control food, a food containing fish oil, and a food containing lipoic acid. At a minimum of 1.3 fold change, a list of 1212 genes was generated compared to the AAFCO control and 1896 genes compared to the food containing fish oil at d 30.
RNA Extraction: Total RNAs were isolated from whole blood samples using the PAXgene RNA isolation kit. All measurements were done with the canine 2 Affymetrix genechips. For statistical analysis, all measurements were normalized with RMA. All analysis was preformed using Partek. An ANOVA t-test was performed for genes that are differentially expressed between the control and test foods were selected based on p-value cutoff 0.1, fold change >+/−1.3.
Table 4 illustrates the change in genes related to cartilage metabolism and energy metabolism in dogs after being fed a control diet compared with dogs fed a control plus lipoic acid.

Compound: O=C(O)CCCC[C@@H]1CCSS1 (racemic) [Lipoic acid, lipoic acid]
- Genomic profile compared to dogs fed the control food (dogs fed lipoic acid): genomically leaner
- Number of genes with altered expression (test food containing lipoic acid vs test food containing fish oil): 1896 genes
- Number of genes with altered expression (test food with 150 ppm lipoic acid vs AAFCO control food): 1212 genes
